In PMC4336944:

Biological target: T1, Flexi-cloned Halo-TNIP2 (with the C-terminal valine cloning scar), transiently expressed from the CMV promoter (human) (UniProt Q8NFZ5)
T1 sequence: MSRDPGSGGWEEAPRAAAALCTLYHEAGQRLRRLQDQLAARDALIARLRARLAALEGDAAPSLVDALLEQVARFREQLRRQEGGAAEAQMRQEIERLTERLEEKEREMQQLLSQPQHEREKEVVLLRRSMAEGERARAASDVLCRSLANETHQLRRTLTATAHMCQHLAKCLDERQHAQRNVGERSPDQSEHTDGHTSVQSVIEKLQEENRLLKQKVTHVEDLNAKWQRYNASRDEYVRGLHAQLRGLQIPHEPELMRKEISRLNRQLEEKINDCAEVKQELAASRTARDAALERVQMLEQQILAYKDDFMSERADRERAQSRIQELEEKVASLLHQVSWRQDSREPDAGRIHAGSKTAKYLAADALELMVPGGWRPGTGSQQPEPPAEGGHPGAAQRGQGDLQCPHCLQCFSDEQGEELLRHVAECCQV
Assay: pull-down; Halo affinity purification from whole cell extracts of transfected HEK293T cells, TEV eluates analysed by SDS-PAGE and Western blotting (anti-PTPN13, anti-TNIP2, anti-FLAG)

binding: binds
Substance: FLAG-tagged PDZ domain region of PTPN13 (903 aa region with the five PDZ domains) (domain or fragment)

No constants are given. Whether binding was seen depends on the method and setting. In cells and extracts the contact can be indirect. A result given as binding can be weak or reduced; the word gives no strength.
